Literature values as cited in patent US8637321B2, “Lipidomics approaches for central nervous system disorders” (priority 2005, dated 2014).
Some entries share one result that the patent states for a list of compounds.

Settings: prospective data; cited from earlier work

SMILES | weight gain, mean increases during the first year of therapy [lbs]
O=C1CCc2ccc(OCCCCN3CCN(c4cccc(Cl)c4Cl)CC3)cc2N1 [Aripiprazole, aripiprazole] | < 2
O=C1Cc2cc(CCN3CCN(c4nsc5ccccc45)CC3)c(Cl)cc2N1 [ziprasidone] | < 2
